PubChem BioAssay AID504764 | Drosophila RNAi Screening Center | 2011
In all, the deposit lists about 22,000 reagents; below is an unselected part of those with a known target gene and a result. In the full data, 403 (1.9%) are marked active. 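Unnormalised raw counts per well; ratio z-scores behind the hit calls and whether each hit raises or lowers signal are not deposited.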 Not stated in the record: the amount of reagent.

Assay: 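Genes whose knock-down alters Notch-dependent transcription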 (primary screen)
System: Drosophila Kc167 cells
Reagent: long dsRNA against Drosophila genes
Timing: about 5 days (4 days dsRNA, then 24 h after transfection)
Challenge: transfection of constitutively active membrane-tethered Notch lacking the extracellular domain, read 24 h later
Read-out: 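Firefly luciferase from an E(spl)m3 reporter with active Notch, plus control-promoter and uninduced reporter wells for normalisation; unnormalised counts, duplicate wells a and b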
Scale: induced reporter light, run 1, well a and induced reporter light, run 1, well b: higher = more light from the Notch target reporter with active Notch; control promoter light, run 1, well a and control promoter light, run 1, well b: higher = more light from the viral control promoter (cell number, transfection, viability); uninduced reporter light, run 1, well a: higher = more light from the Notch target reporter without active Notch
Rule for the call: 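Hit if the duplicate-averaged log2 ratio of induced to control-promoter light gives a plate-wise z beyond ±2, or induced to uninduced beyond ±1.8; weak-control or discordant-duplicate wells dropped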
Meaning of the calls: active = modifier hit (raised or lowered Notch signal); inactive = not a hit

Nph [DRSC16342]
- induced reporter light, run 1, well a: 1.11e5
- induced reporter light, run 1, well b: 1.00e5
- control promoter light, run 1, well a: 1.72e5
- control promoter light, run 1, well b: 1.47e5
- uninduced reporter light, run 1, well a: 10595
- activity call: inactive

CG14269 [DRSC17912]
- induced reporter light, run 1, well a: 1.09e5
- induced reporter light, run 1, well b: 1.10e5
- control promoter light, run 1, well a: 1.94e5
- control promoter light, run 1, well b: 1.84e5
- uninduced reporter light, run 1, well a: 7975
- activity call: inactive

Ost48 [DRSC18693]
- induced reporter light, run 1, well a: 2.36e5
- induced reporter light, run 1, well b: 2.19e5
- control promoter light, run 1, well a: 2.51e5
- control promoter light, run 1, well b: 2.42e5
- uninduced reporter light, run 1, well a: 16390
- activity call: inactive

CG9806 [DRSC18444]
- induced reporter light, run 1, well a: 94580
- induced reporter light, run 1, well b: 1.08e5
- control promoter light, run 1, well a: 1.82e5
- control promoter light, run 1, well b: 1.84e5
- uninduced reporter light, run 1, well a: 7460
- activity call: inactive

Cyp18a1 [DRSC20235]
- induced reporter light, run 1, well a: 87805
- induced reporter light, run 1, well b: 1.09e5
- control promoter light, run 1, well a: 1.04e5
- control promoter light, run 1, well b: 1.30e5
- uninduced reporter light, run 1, well a: 11215
- activity call: inactive

E(spl)m8-HLH [DRSC16654]
- induced reporter light, run 1, well a: 1.59e5
- induced reporter light, run 1, well b: 1.72e5
- control promoter light, run 1, well a: 1.72e5
- control promoter light, run 1, well b: 1.59e5
- uninduced reporter light, run 1, well a: 13970
- activity call: inactive

Elp5 [DRSC08547]
- induced reporter light, run 1, well a: 1.17e5
- induced reporter light, run 1, well b: 1.11e5
- control promoter light, run 1, well a: 2.01e5
- control promoter light, run 1, well b: 1.23e5
- uninduced reporter light, run 1, well a: 7535
- activity call: inactive

CG18558 [DRSC00525]
- induced reporter light, run 1, well a: 1.04e5
- induced reporter light, run 1, well b: 1.25e5
- control promoter light, run 1, well a: 1.01e5
- control promoter light, run 1, well b: 76500
- uninduced reporter light, run 1, well a: 7880
- activity call: inactive

CG18558 [DRSC21593]
- activity call: inactive

CG34204 [DRSC03897]
- induced reporter light, run 1, well a: 73135
- induced reporter light, run 1, well b: 84780
- control promoter light, run 1, well a: 71785
- control promoter light, run 1, well b: 76145
- uninduced reporter light, run 1, well a: 8010
- activity call: inactive

shv [DRSC00640]
- induced reporter light, run 1, well a: 84195
- induced reporter light, run 1, well b: 83315
- control promoter light, run 1, well a: 87230
- control promoter light, run 1, well b: 47880
- uninduced reporter light, run 1, well a: 7950
- activity call: inactive

shv [DRSC22122]
- activity call: inactive

Records above whose gene name begins with S or s (2):
shv [DRSC00640]
- induced reporter light, run 1, well a: 84195
- induced reporter light, run 1, well b: 83315
- control promoter light, run 1, well a: 87230
- control promoter light, run 1, well b: 47880
- uninduced reporter light, run 1, well a: 7950
- activity call: inactive

shv [DRSC22122]
- activity call: inactive
